Results reported in paper PMC4117762.
These are yes or no findings as the source states them, for the method shown. For part of these data: Binding seen in cells or lysates may run through a third protein. Some binding calls cover weakened binding; strength is not graded here. For part of these data: Sequences can lack the tags named with a protein. Blank lines part the entries; values can stand above or below the substance they belong to.

Protein sequences, listed by entry. Tags and fused reporters are not part of them. Lines headed by an entry give the natural chain unless they say otherwise; changes in a name come on top. Residues count along the entry.
UniProt Q6NZB1: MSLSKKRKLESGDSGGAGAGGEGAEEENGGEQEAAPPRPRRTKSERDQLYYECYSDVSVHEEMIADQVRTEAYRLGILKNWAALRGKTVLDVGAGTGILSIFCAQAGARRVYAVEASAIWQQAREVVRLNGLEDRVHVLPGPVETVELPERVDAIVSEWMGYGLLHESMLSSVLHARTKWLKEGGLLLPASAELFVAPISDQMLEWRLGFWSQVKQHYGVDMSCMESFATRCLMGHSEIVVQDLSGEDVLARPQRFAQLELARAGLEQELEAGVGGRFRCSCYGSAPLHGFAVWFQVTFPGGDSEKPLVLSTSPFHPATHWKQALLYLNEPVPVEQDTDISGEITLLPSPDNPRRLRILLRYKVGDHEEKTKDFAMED
UniProt Q96LA8: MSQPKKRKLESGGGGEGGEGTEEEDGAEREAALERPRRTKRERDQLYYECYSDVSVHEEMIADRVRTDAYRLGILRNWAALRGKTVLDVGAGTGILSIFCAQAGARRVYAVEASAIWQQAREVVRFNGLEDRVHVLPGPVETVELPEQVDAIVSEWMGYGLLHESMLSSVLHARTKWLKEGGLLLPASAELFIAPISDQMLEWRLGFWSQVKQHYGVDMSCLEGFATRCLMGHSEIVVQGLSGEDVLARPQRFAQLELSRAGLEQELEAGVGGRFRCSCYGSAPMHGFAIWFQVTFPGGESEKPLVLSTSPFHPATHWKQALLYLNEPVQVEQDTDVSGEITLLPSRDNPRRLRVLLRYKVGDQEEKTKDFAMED
UniProt Q04206: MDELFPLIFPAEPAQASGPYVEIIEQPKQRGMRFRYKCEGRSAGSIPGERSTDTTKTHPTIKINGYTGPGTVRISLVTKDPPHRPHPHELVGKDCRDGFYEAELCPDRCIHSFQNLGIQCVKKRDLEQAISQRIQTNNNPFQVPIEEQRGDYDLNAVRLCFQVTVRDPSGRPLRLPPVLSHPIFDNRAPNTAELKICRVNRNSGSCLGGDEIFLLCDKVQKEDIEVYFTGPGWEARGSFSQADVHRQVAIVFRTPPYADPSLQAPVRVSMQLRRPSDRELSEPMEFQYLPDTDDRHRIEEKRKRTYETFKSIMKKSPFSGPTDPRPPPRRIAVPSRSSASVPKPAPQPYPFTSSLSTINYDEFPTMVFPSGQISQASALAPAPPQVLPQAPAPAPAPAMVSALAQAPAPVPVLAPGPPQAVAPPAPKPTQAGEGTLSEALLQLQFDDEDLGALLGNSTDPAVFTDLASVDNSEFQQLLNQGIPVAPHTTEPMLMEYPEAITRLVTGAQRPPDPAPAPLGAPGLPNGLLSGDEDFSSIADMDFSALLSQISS
GST-RelA (1–431): residues 1-431 of Q04206
UniProt Q04207: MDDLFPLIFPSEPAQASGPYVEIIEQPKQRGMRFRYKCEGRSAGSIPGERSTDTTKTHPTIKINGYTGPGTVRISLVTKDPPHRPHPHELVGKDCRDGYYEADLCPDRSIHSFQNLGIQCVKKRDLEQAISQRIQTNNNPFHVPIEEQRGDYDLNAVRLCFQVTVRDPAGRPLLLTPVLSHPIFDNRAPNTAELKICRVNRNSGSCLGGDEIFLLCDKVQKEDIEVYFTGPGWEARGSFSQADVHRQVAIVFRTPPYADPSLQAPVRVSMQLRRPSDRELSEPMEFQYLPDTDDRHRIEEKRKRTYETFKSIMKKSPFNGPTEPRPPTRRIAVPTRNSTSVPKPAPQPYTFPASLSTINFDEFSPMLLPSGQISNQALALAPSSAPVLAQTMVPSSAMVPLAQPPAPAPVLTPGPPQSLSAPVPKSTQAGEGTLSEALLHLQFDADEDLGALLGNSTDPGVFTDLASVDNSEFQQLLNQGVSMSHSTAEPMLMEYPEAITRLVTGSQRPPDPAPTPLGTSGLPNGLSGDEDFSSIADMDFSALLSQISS

Experiments:
[1] = target: PRMT6, endogenous in mouse embryonic fibroblasts (mouse (endogenous in MEFs)) (UniProt Q6NZB1); assay: co-IP; immortalized WT and PRMT6-KO MEFs at 90% confluency, endogenous proteins; lysate in co-IP buffer incubated with αPRMT6 overnight, then protein A/G agarose; WB αRelA
GFP-PRMT6 = GFP-PRMT6 (UniProt Q96LA8); assay: co-IP; HEK 293 transiently transfected with GFP, GFP-CARM1 or GFP-PRMT6 along with pCDNA-RelA for 48 h, TNF-α 30 min; IP with αGFP or αIgG, WB αRelA
GFP-CARM1 = target: T1, GFP-CARM1 (UniProt Q86X55); assay: as above
T1 sequence: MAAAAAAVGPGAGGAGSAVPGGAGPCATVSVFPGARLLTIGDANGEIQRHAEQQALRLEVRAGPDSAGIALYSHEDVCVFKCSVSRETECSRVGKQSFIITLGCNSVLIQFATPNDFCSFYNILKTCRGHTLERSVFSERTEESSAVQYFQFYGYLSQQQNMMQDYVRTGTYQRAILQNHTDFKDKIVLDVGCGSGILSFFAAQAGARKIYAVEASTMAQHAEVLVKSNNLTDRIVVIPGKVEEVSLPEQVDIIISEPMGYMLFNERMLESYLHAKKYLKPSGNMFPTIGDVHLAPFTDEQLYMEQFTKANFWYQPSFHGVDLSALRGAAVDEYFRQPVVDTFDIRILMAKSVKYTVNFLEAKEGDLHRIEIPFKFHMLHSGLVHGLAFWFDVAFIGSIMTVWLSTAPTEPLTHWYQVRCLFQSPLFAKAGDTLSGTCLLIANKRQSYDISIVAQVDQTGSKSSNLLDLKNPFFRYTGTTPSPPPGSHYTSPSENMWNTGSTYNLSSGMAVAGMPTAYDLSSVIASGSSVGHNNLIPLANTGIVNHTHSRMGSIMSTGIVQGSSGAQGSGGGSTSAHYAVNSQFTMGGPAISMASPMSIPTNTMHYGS

[2] = target: PRMT6, endogenous in HEK 293 cells (human (endogenous in HEK 293)) (UniProt Q96LA8); assay: co-IP; HEK 293 at 90% confluency, endogenous proteins; lysate in co-IP buffer incubated with αIgG or αPRMT6 overnight, then protein A/G agarose; WB αRelA
[3] = target: Flag-PRMT6 (not fused to ER*) (human) (UniProt Q96LA8); assay: co-IP; HEK 293 transiently transfected with Flag-PRMT6 (not fused to ER*); co-IP (Supplementary Figure S3B)
GST-RelA (1–431) = GST-RelA (1–431) (UniProt Q04206); assay: pull-down; 10 μg of eluted GST fusion protein and His-PRMT6 incubated in co-IP buffer (50 mM Tris-HCl pH 7.5, 150 mM NaCl, 0.1% NP-40, 5 mM EDTA, 5 mM EGTA, 15 mM MgCl2) overnight at 4 °C; pulled down with glutathione beads 2 h at 4°C; WB αHis; both purified

Substance: RelA subunit of NF-κB, endogenous in mouse embryonic fibroblasts (from UniProt Q04207 1-549)
binding [1]: binds

binding (GFP-PRMT6): binds
binding (GFP-CARM1): binds
Substance: RelA expressed from a pCDNA-RelA vector (from UniProt Q04206 1-551)

binding [2]: binds
binding [3]: binds
Substance: RelA subunit of NF-κB, endogenous in HEK 293 cells (from UniProt Q04206 1-551)

binding (GST-RelA (1–431)): binds
Substance: His-PRMT6 (from UniProt Q96LA8 1-375) (enzyme)
